This is one part of the list.
Tests used:
Assay in all cases: log2 fold change, soluble protein after heating vs DMSO (PISA); higher = thermal stabilisation; K562 lysate, 10 uM; active = over 0.2 and 3.5 SD of the protein, either way, in both replicates (recomputed)
ibrutinib = compound: C=CC(=O)N1CCC[C@@H](n2nc(-c3ccc(Oc4ccccc4)cc3)c3c(N)ncnc32)C1 [ibrutinib]
Procedure, shortened: (§1)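 Following dounce homogenisation of K562 pellets in PBS pH 7.4 with 1 mM MgCl2, crude extract at 1 mg/mL protein was incubated for 30 min with 10 μM compound. Aliquots were then heated for 3 min over 48°C-58°C and pooled, NP-40 was added to 0.5% at 4°C, and soluble protein was recovered as the supernatant at 21,000xg for 90 min. Channel-sum-equalised TMTpro 16plex LC-MS/MS quantified this protein. Each value, from duplicates, is a log-two fold change in thermal stability relative to solvent controls.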

Protein sequences, listed by entry. Tags and fused reporters are not part of them. Lines headed by an entry give the natural chain unless they say otherwise; changes in a name come on top.
UniProt Q96HP4: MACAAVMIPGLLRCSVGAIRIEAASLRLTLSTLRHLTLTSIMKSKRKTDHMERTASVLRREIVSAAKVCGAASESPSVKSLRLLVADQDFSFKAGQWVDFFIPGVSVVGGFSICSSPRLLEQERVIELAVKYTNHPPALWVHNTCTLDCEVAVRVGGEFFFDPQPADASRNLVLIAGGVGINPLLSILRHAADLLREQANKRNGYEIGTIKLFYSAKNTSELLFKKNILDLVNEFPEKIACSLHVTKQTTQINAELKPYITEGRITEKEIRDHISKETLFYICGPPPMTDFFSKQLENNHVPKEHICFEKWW
UniProt Q86W56: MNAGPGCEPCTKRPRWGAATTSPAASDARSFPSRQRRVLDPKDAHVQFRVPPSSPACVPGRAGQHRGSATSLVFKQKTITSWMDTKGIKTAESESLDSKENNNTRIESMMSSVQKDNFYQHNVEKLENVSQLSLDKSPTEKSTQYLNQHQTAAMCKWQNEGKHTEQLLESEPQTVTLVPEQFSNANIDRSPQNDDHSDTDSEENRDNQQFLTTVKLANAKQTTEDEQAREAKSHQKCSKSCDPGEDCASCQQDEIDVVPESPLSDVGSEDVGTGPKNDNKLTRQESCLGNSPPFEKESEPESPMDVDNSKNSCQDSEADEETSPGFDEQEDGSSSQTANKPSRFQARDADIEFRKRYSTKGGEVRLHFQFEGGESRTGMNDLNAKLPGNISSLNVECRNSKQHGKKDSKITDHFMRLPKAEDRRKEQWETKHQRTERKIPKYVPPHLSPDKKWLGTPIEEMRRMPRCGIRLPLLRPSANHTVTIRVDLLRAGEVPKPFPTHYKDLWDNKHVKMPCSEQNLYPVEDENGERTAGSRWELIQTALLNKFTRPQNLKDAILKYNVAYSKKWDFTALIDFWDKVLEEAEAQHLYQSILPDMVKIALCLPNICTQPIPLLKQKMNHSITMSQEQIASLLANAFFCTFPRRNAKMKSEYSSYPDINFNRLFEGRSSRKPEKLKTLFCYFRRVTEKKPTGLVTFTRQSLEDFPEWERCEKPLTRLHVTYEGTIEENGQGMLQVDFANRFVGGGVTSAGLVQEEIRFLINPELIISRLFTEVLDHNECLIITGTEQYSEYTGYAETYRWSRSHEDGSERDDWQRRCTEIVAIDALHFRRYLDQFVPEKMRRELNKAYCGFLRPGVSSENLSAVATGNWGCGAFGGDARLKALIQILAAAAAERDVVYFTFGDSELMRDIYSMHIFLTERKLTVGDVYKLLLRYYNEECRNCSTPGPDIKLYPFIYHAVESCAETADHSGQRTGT
UniProt Q9NP74: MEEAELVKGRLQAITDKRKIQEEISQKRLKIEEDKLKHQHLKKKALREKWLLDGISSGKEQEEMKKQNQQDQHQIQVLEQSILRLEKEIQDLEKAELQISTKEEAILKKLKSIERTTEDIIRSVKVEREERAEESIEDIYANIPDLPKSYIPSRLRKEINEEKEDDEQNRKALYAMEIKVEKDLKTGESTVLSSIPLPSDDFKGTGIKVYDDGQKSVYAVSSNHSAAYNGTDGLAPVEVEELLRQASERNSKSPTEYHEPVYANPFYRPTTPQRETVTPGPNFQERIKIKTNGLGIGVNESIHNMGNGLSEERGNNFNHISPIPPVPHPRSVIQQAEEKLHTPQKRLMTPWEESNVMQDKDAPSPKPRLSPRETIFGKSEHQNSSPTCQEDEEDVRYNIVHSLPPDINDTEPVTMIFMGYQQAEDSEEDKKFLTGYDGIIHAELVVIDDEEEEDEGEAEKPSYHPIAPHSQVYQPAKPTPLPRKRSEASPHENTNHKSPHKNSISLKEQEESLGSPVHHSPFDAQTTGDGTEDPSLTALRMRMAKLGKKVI
UniProt P43034: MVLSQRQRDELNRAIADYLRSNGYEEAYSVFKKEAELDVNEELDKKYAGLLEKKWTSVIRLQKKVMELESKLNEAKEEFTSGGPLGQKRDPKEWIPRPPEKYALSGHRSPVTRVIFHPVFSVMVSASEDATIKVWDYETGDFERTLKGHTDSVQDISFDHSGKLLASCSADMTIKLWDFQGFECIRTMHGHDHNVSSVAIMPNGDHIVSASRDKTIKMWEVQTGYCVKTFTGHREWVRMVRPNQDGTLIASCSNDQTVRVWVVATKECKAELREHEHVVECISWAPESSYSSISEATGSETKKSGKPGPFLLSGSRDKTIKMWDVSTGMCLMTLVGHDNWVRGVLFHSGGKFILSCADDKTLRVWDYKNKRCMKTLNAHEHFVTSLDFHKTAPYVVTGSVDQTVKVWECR
UniProt Q8N6M0: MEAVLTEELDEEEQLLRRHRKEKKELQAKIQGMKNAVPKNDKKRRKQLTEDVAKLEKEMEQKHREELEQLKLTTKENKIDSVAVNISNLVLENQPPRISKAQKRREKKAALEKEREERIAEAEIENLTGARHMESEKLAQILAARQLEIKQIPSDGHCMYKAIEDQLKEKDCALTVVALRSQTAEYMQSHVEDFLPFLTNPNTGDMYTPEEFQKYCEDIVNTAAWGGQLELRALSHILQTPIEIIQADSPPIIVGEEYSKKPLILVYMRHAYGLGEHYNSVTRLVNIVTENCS
UniProt Q9H4L5: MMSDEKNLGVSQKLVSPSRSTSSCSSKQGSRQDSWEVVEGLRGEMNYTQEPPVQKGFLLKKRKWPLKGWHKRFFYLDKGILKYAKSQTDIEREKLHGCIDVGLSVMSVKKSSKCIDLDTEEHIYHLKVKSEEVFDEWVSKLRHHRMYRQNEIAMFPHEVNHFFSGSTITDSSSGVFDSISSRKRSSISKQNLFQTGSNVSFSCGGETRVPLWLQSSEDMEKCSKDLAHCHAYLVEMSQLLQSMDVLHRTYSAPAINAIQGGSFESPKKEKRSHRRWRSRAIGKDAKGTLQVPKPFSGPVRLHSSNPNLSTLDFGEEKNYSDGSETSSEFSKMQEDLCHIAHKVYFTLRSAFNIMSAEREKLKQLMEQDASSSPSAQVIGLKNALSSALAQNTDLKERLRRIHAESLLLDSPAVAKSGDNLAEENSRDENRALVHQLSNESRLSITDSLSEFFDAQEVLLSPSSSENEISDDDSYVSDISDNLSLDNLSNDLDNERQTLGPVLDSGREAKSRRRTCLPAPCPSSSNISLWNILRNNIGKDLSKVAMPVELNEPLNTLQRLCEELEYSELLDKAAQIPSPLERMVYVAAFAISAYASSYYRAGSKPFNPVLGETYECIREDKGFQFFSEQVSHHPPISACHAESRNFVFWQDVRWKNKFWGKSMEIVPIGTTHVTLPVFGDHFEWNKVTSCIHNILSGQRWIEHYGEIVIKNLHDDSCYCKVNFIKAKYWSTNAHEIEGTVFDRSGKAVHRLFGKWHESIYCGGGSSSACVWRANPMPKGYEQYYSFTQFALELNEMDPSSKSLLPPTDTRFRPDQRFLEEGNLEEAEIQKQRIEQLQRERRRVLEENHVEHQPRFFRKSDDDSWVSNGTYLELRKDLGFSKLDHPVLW
UniProt O43929: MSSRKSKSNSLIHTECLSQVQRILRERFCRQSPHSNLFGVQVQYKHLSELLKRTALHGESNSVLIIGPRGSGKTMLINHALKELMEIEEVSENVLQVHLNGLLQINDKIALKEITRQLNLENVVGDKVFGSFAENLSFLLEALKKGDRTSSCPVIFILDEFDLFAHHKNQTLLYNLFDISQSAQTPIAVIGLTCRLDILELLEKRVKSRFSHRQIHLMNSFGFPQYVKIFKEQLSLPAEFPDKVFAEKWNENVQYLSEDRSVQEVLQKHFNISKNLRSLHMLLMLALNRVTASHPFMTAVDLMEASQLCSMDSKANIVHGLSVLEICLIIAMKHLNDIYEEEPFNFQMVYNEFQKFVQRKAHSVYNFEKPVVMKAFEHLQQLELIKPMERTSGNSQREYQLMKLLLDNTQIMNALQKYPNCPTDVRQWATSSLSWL
UniProt Q8N573: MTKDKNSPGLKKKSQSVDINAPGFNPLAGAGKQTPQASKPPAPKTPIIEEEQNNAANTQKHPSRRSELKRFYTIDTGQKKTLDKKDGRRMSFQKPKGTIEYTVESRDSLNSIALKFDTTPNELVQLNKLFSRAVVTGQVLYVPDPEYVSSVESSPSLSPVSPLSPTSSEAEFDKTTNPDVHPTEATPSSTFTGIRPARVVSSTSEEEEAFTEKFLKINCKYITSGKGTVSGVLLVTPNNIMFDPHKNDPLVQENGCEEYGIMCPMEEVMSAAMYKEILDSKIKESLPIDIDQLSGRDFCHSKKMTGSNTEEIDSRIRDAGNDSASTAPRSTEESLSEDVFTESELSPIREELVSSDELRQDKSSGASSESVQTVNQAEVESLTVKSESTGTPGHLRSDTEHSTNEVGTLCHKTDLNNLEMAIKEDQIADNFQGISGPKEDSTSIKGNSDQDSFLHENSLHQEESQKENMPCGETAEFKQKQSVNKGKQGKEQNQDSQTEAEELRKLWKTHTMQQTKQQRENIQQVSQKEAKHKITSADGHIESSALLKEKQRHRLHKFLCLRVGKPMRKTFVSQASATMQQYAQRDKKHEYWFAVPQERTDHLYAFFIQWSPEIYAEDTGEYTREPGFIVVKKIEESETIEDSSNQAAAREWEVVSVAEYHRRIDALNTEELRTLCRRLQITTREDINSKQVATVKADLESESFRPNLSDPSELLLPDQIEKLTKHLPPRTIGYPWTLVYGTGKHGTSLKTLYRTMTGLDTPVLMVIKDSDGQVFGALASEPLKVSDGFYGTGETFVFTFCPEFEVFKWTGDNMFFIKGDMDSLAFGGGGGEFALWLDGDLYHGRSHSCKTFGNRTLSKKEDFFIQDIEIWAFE
UniProt O60313: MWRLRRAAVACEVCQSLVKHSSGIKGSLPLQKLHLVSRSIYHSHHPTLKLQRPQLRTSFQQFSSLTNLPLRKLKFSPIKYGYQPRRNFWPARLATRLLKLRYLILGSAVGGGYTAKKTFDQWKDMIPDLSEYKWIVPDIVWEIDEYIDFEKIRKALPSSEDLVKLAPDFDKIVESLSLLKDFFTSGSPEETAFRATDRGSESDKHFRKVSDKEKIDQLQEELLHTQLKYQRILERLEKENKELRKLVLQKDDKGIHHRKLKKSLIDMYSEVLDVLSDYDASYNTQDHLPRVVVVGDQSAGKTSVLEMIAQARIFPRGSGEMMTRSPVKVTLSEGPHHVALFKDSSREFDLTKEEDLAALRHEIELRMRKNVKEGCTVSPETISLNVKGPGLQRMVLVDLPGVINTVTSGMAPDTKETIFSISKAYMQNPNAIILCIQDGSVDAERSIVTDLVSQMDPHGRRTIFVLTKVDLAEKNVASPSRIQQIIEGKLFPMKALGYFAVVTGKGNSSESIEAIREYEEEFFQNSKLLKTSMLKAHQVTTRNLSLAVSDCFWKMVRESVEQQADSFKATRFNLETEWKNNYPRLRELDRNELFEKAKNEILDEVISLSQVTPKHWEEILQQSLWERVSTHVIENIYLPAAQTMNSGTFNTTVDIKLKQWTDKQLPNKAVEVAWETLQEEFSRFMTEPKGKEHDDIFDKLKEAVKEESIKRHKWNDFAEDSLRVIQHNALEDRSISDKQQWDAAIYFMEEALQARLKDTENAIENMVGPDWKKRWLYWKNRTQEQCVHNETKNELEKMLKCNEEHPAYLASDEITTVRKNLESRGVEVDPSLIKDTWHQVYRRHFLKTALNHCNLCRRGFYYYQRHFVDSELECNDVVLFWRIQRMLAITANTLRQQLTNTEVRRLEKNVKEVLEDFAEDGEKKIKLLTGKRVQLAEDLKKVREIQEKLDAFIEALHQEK
UniProt Q9BXB4: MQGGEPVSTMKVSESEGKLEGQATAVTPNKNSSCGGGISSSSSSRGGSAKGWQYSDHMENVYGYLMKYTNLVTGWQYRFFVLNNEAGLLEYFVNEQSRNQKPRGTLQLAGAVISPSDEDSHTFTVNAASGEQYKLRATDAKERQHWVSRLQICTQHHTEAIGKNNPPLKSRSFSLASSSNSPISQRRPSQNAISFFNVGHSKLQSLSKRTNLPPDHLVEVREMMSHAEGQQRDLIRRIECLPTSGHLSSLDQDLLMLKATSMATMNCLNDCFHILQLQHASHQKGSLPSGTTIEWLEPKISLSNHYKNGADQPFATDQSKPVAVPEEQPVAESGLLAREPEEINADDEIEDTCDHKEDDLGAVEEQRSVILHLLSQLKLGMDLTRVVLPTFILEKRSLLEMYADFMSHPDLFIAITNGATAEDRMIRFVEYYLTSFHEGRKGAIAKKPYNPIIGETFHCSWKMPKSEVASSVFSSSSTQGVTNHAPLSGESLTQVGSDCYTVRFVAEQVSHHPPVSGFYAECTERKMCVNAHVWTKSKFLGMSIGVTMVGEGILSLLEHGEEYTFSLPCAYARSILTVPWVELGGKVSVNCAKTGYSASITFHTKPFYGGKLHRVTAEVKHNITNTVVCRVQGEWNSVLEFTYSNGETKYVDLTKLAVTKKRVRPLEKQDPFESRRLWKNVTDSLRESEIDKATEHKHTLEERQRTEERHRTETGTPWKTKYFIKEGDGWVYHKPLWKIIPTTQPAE
UniProt Q9NRP0: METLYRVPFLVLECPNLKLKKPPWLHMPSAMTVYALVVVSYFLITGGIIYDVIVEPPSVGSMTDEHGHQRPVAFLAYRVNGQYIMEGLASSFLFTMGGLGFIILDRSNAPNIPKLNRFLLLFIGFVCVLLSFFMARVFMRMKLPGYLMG

[1] = compound: CC(=O)c1cnc2ccc(-c3cc(Cl)c(O)c(Cl)c3)nc2c1N[C@H]1CC[C@H](CN(C)C)CC1
Procedure, shortened: as §1

ralimetinib = compound: CC(C)(C)Cn1c(N)nc2ccc(-c3[nH]c(C(C)(C)C)nc3-c3ccc(F)cc3)nc21 [ralimetinib]
Procedure, shortened: as §1

[2] = compound: CC(C)(O)CC(=O)NCCn1ccc2ncnc(Nc3ccc(Oc4cccc(C(F)(F)F)c4)c(Cl)c3)c21
Procedure, shortened: as §1

[3] = compound: CC(C)C1=C2N=C(C=C(N2N=C1)NCC3=CC=CC=C3)NCCCCCCN
Procedure, shortened: as §1

[4] = compound: CC1=C(C(CC(=O)N1)C2=CC=C(C=C2)C(F)(F)F)C(=O)NC3=C(C=C4C(=C3)C=NN4)F
Procedure, shortened: as §1

[5] = compound: CC1=C(C2=C(C=C1)C(=O)C3=CC=CC=C3N2CCCN)C
Procedure, shortened: as §1

[6] = compound: CC1=C(C=C(C=C1)NC(=O)C2=CC(=CC=C2)C(C)(C)C#N)NC3=CC4=C(C=C3)N=CN(C4=O)C
Procedure, shortened: as §1

[7] = compound: CC1=C(C=C(C=C1)NC(=O)C2=CC(=CC=C2)N(C)C)NC(=O)C3=CC=C(C=C3)O
Procedure, shortened: as §1

[8] = compound: CC1=CC=C(C=C1)SC2=C3C=C(SC3=CN=C2)C(=O)N
Procedure, shortened: as §1

vemurafenib = compound: CCCS(=O)(=O)Nc1ccc(F)c(C(=O)c2c[nH]c3ncc(-c4ccc(Cl)cc4)cc23)c1F [vemurafenib]
Procedure, shortened: as §1

[9] = compound: CCCS(=O)(=O)Nc1ccc(F)c(C(=O)c2c[nH]c3ncc(Cl)cc23)c1F
Procedure, shortened: as §1

barasertib = compound: CCN(CCCOc1ccc2c(Nc3cc(CC(=O)Nc4cccc(F)c4)[nH]n3)ncnc2c1)CCOP(=O)(O)O [barasertib]
Procedure, shortened: as §1

[10] = compound: CC[C@@H]1C(=O)N(C)c2cnc(Nc3ccc(C(=O)NC4CCN(C)CC4)cc3OC)nc2N1C1CCCC1
Procedure, shortened: as §1

volasertib = compound: CC[C@@H]1C(=O)N(C)c2cnc(Nc3ccc(C(=O)N[C@H]4CC[C@H](N5CCN(CC6CC6)CC5)CC4)cc3OC)nc2N1C(C)C [volasertib]
Procedure, shortened: as §1

[11] = compound: CCn1c(C(=O)N(C2CC2)C2CC2)cc2c3c(ncn3C)c(Nc3cc(C)n(C)n3)nc21
Procedure, shortened: as §1

[12] = compound: CCn1cc(-c2ccnc3[nH]c(-c4cccc(CN(C)C)c4)cc23)c(-c2ccc(NC(=O)N(C)C)cc2)n1
Procedure, shortened: as §1

[13] = compound: CN1CCC(CNc2ccc3ncc(-c4cccc(OC(F)(F)F)c4)n3n2)CC1
Procedure, shortened: as §1

saracatinib = compound: CN1CCN(CCOc2cc(OC3CCOCC3)c3c(Nc4c(Cl)ccc5c4OCO5)ncnc3c2)CC1 [saracatinib]
Procedure, shortened: as §1

sotrastaurin = compound: CN1CCN(c2nc(C3=C(c4c[nH]c5ccccc45)C(=O)NC3=O)c3ccccc3n2)CC1 [sotrastaurin]
Procedure, shortened: as §1

Measured: log2 fold change

OXNAD1 (UniProt Q96HP4)
inactive: ibrutinib -0.026 | [1] -0.007 | ralimetinib 0.05 | [2] 0.05 | [3] 0.006 | [4] 0.003 | [5] -0.021 | [6] 0.032 | [7] 0.001 | [8] 0.028 | vemurafenib -0.031 | [9] -0.003 | barasertib 0.05 | [10] -0.061 | volasertib -0.054 | [11] 0.014 | [12] -0.017 | [13] -0.056 | saracatinib 0.018 | sotrastaurin 0.062

PARG (UniProt Q86W56)
inactive: ibrutinib 0.013 | [1] 0.01 | ralimetinib 0.017 | [2] -0.011 | [3] -0.025 | [4] -0.017 | [5] -0.028 | [6] 0.021 | [7] 0.061 | [8] 0.005 | vemurafenib 0.028 | [9] 0.033 | barasertib 0.008 | [10] -0.027 | volasertib -0.018 | [11] -0.015 | [12] 0.065 | [13] -0.032 | saracatinib 0.006 | sotrastaurin 0.02

NUTF2 (UniProt P61970)
inactive: ibrutinib -0.012 | [1] 0.031 | ralimetinib 0.024 | [2] -0.014 | [3] 0.007 | [4] -0.058 | [5] 0.04 | [6] 0.04 | [7] -0.018 | [8] 0.055 | vemurafenib -0.05 | [9] -0.014 | barasertib 0.097 | [10] 0.039 | volasertib 0.01 | [11] 0.025 | [12] -0.024 | [13] -0.043 | saracatinib -0.042 | sotrastaurin 0.008

PAF1 (UniProt Q8N7H5)
inactive: ibrutinib 0.023 | [1] 0.015 | ralimetinib 0.005 | [2] -0.029 | [3] -0.012 | [4] -0.041 | [5] -0.007 | [6] 0.012 | [7] -0.001 | [8] 0.005 | vemurafenib 0.019 | [9] 0.031 | barasertib -0.001 | [10] -0.017 | volasertib -0.015 | [11] -0.023 | [12] -0.027 | [13] -0.011 | saracatinib 0.007 | sotrastaurin 0.005

PALMD (UniProt Q9NP74)
inactive: ibrutinib 0.093 | [1] 0.089 | ralimetinib 0.013 | [2] 0.172 | [3] -0.071 | [4] 0.047 | [5] 0.044 | [6] -0.023 | [7] 0.036 | [8] -0.024 | vemurafenib 0.038 | [9] -0.014 | barasertib -0.062 | [10] 0.199 | volasertib 0.029 | [11] 0.153 | [12] 0.07 | [13] 0.02 | saracatinib -0.055 | sotrastaurin -0.011

PAFAH1B1 (UniProt P43034)
inactive: ibrutinib 0.012 | [1] -0.005 | ralimetinib 0.002 | [2] 0.052 | [3] -0.038 | [4] -0.009 | [5] 0.007 | [6] -0.035 | [7] 0.015 | [8] -0.011 | vemurafenib 0.011 | [9] 0.013 | barasertib -0.019 | [10] 0.01 | volasertib 0.013 | [11] 0.011 | [12] 0.093 | [13] -0.054 | saracatinib -0.003 | sotrastaurin 0.018

NUP205 (UniProt Q92621)
inactive: ibrutinib 0.015 | [1] 0.026 | ralimetinib 0.026 | [2] -0.006 | [3] -0.036 | [4] 0.003 | [5] 0.022 | [6] 0.026 | [7] 0.017 | [8] 0.008 | vemurafenib 0.007 | [9] 0.017 | barasertib 0.038 | [10] -0.047 | volasertib -0.074 | [11] 0.027 | [12] -0.075 | [13] -0.064 | saracatinib 0.043 | sotrastaurin 0.022

OTUD6B (UniProt Q8N6M0)
inactive: ibrutinib 0.023 | [1] 0.003 | ralimetinib -0.003 | [2] 0.007 | [3] 0.009 | [4] 0.008 | [5] 0.006 | [6] 0.148 | [7] -0.005 | [8] 0.04 | vemurafenib 0.004 | [9] -0.002 | barasertib 0.042 | [10] -0.059 | volasertib -0.057 | [11] 0.022 | [12] 0.112 | [13] -0.139 | saracatinib 0.007 | sotrastaurin -0.033

OSBPL3 isoform 2 (UniProt Q9H4L5)
inactive: ibrutinib 0.031 | [1] -0.007 | ralimetinib 0.019 | [2] 0.004 | [3] -0.033 | [4] 0.018 | [5] 0.02 | [6] 0.015 | [7] 0.057 | [8] -0.016 | vemurafenib 0.018 | [9] 0.01 | barasertib 0.005 | [10] -0.053 | volasertib -0.139 | [11] 0.025 | [12] -0.013 | [13] -0.068 | saracatinib 0.04 | sotrastaurin 0.018

ORC4 (UniProt O43929)
inactive: ibrutinib -0.033 | [1] 0.022 | ralimetinib 0.004 | [2] 0.001 | [3] 0.032 | [4] 0.01 | [5] -0.01 | [6] -0.029 | [7] 0.02 | [8] 0.032 | vemurafenib 0.098 | [9] -0.034 | barasertib 0.001 | [10] -0.026 | volasertib -0.041 | [11] 0.022 | [12] -0.046 | [13] -0.089 | saracatinib 0.018 | sotrastaurin -0.018

PA2G4 (UniProt Q9UQ80)
inactive: ibrutinib -0.008 | [1] -0.002 | ralimetinib 0.004 | [2] 0.005 | [3] 0.01 | [4] -0.02 | [5] -0.009 | [6] -0.017 | [7] 0.002 | [8] 0.017 | vemurafenib -0.021 | [9] 0.003 | barasertib -0.02 | [10] -0.02 | volasertib -0.027 | [11] 0.004 | [12] 0.188 | [13] -0.04 | saracatinib 0.008 | sotrastaurin -0.011

OXR1 (UniProt Q8N573)
inactive: ibrutinib 0.043 | [1] -0.013 | ralimetinib -0.012 | [2] -0.026 | [3] -0.009 | [4] -0.01 | [5] -0.017 | [6] 0.02 | [7] 0 | [8] -0.031 | vemurafenib -0.011 | [9] 0.021 | barasertib -0.013 | [10] 0.099 | volasertib 0.011 | [11] -0.071 | [12] -0.028 | [13] 0.042 | saracatinib 0.002 | sotrastaurin -0.014

OPA1 isoform 2 (UniProt O60313)
inactive: ibrutinib -0.001 | [1] 0.006 | ralimetinib -0.004 | [2] -0.036 | [3] -0.035 | [4] 0.031 | [5] 0.026 | [6] 0.024 | [7] 0.046 | [8] 0.02 | vemurafenib 0.022 | [9] 0.029 | barasertib 0.024 | [10] -0.057 | volasertib -0.033 | [11] 0.037 | [12] -0.016 | [13] -0.192 | saracatinib 0.007 | sotrastaurin 0.014

OTUB1 (UniProt Q96FW1)
inactive: ibrutinib -0.005 | [1] -0.013 | ralimetinib 0.021 | [2] -0.053 | [3] -0.008 | [4] -0.004 | [5] -0.009 | [6] -0.008 | [7] -0.012 | [8] 0.006 | vemurafenib 0.016 | [9] -0.018 | barasertib 0.021 | [10] -0.016 | volasertib 0.018 | [11] -0.01 | [12] -0.047 | [13] 0.023 | saracatinib -0.03 | sotrastaurin -0.001

OSBPL11 (UniProt Q9BXB4)
inactive: ibrutinib 0.02 | [1] 0.056 | ralimetinib 0.07 | [2] 0.003 | [3] -0.011 | [4] -0.009 | [5] -0.056 | [6] -0.023 | [7] -0.016 | [8] -0.101 | vemurafenib -0.053 | [9] 0.025 | barasertib 0.027 | [10] -0.022 | volasertib -0.046 | [11] -0.043 | [12] 0.154 | [13] 0.073 | saracatinib 0.063 | sotrastaurin 0.01

OSTC isoform 2 (UniProt Q9NRP0)
inactive: ibrutinib -0.046 | [1] 0.035 | ralimetinib -0.023 | [2] -0.178 | [3] -0.002 | [4] -0.043 | [5] -0.107 | [6] 0.083 | [7] -0.034 | [8] 0.02 | vemurafenib 0.043 | [9] 0.02 | barasertib -0.012 | [10] 0.067 | volasertib 0.02 | [11] -0.034 | [12] 0.043 | [13] -0.074 | saracatinib -0.043 | sotrastaurin 0.005

2 neighbouring entries already listed, for reference:
OTUB1 (UniProt Q96FW1)
inactive: ibrutinib -0.005 | [1] -0.013 | ralimetinib 0.021 | [2] -0.053 | [3] -0.008 | [4] -0.004 | [5] -0.009 | [6] -0.008 | [7] -0.012 | [8] 0.006 | vemurafenib 0.016 | [9] -0.018 | barasertib 0.021 | [10] -0.016 | volasertib 0.018 | [11] -0.01 | [12] -0.047 | [13] 0.023 | saracatinib -0.03 | sotrastaurin -0.001

OSBPL11 (UniProt Q9BXB4)
inactive: ibrutinib 0.02 | [1] 0.056 | ralimetinib 0.07 | [2] 0.003 | [3] -0.011 | [4] -0.009 | [5] -0.056 | [6] -0.023 | [7] -0.016 | [8] -0.101 | vemurafenib -0.053 | [9] 0.025 | barasertib 0.027 | [10] -0.022 | volasertib -0.046 | [11] -0.043 | [12] 0.154 | [13] 0.073 | saracatinib 0.063 | sotrastaurin 0.01

From the supplement of paper PMC10849652
